Data as given in US20250170127A1, “RE-SENSITIZING MULTIDRUG-RESISTANT (MDR) GRAM-NEGATIVE BACTERIA TO COLISTIN USING IONOPHORES” (The Regents of the University of Colorado, a body corporate, priority 2022, published 2025).

Test system: HeLa cells
Type: cell-based, human
Details: GI50 in HeLa / MRC in AR-0493
Experimental: These 10 compounds were tested for their MICs and minimum re-sensitizing concentrations (MRCs) in the presence colistin at 2 μg/mL in E. coli AR-0493. […] To evaluate their toxicity in mammalian cells, the present inventors treated human epithelial adenocarcinoma HeLa cells with each compound at a wide range of concentrations.
To evaluate the mammalian toxicity of these analogs, Applicants tested them in cell viability assay using human cervical adenocarcinoma HeLa cells. Their respective half maximal growth inhibition concentration (GI50) was calculated using KaleidaGraph. The selectivity index (SI) for each compound was also calculated as the ratio of their GI50 and MRC. […] Therefore, Applicants selected two bisanilino analogs, 7l and 7m, that bear chlorines at the meta- and para-positions, respectively, of the phenyl groups for further characterization studies. […]. […] Their mammalian toxicities were also evaluated, and SIs calculated. […] Applicants we next explored the scope of analogs 71 and 7m their colistin-potentiating activity in 8 different MDR Gram negative bacteria with diverse genetic backgrounds and resistance mechanisms (Table 7). All strains were obtained from CDC and FDA Antibiotic Resistance Bank. For example, E. coli AR-0493 and K. pneumoniae AR-0497 carry the plasmid that contains the most prevalent mcr-1 gene. […]

SMILES	SI (Selective Index), ratio of GI50 and MRC
Clc1cccc(Nc2nc3nonc3nc2Nc2cccc(Cl)c2)c1 [Compound 7l]	44
Clc1ccc(Nc2nc3nonc3nc2Nc2ccc(Cl)cc2)cc1 [Compound 7m]	56
